Reference: PubChem BioAssay AID493014 (National Center for Advancing Translational Sciences (NCATS), 2011)
Some of the results follow. Further columns of the screen follow, without active or inactive calls. Compounds called inactive in the main read-out are mostly missing here. Words in brackets tell the shape of the fitted curve; partial curves, single points and poor fits give uncertain potencies.

Test: qHTS Assay to Find Inhibitors of Chronic Active B-Cell Receptor Signaling
Conditions: ABC-DLBCL IkBa-CBG/CBR reporter, luminescence ratio (green luciferase fused to IkBa over red control in TMD8 lymphoma cells), 4 h
How it was run: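 TMD8 human ABC-DLBCL cells with doxycycline-inducible IκBα–green luciferase fusion and unfused red luciferase, in 0.5% FBS medium; compounds up to 46 uM, 4 h at 37C. Green/red luminescence ratio, filter-overlap corrected, fitted to concentration-response curves.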

[1] = measured here: CBR red luminescence, cell number
[2] = measured here: IkBa-CBG green luminescence

O=C(OC(C(=O)Nc1cc(Cl)cc(Cl)c1)c1ccccc1)C1=COCCO1 (centres undefined)
AC50 [1]: 2.06 µM [falling, partial curve, poor fit]

Cc1ccc(-c2cc(-c3ccccc3O)nc(N/N=C/c3cccnc3)n2)cc1
AC50 [1]: 1.26 µM [falling, full curve]

CCOc1cc(/C=N/O)ccc1OCc1ccc([N+](=O)[O-])cc1
AC50 [1]: 5.8 µM [rising, partial curve]

COC(=O)c1ccccc1NC(=O)CSc1[nH]c(=O)cc(C)c1C#N
AC50 [1]: 15.8 µM [falling, single point]

CC1CCCC(C)N1C(=O)COC(=O)c1ccc(Br)o1 (centres undefined)
AC50 [1]: 6.51 µM [rising, single point]

COc1cc(OC)cc(C(=O)OCC(=O)Nc2ccc(N3CCCCC3)cc2)c1
AC50 [1]: 6.51 µM [falling, single point]

COc1cccc2cc(CC(=O)c3ccccc3)c(=O)oc12
AC50 [1]: 14.1 µM [falling, partial curve]

Cc1ccc(-c2cc(C(=O)Nc3ccccc3C)c3ccccc3n2)o1
AC50 [1]: 0.731 µM [falling, full curve, poor fit]

O=C(COc1ccc(Oc2ccccc2)cc1)NCc1cn2ccccc2n1
AC50 [1]: 3.98 µM [rising, full curve, poor fit] | AC50 [2]: 10 µM [falling, partial curve]

O=c1/c(=C\c2ccc(O)cc2)sc2n1C(c1ccccc1)C(c1ccccc1)=NN=2 (centres undefined)
AC50 [1]: 12.6 µM [falling, partial curve]

O=c1[nH]c(-c2ccc(O)cc2)nc2scc(-c3cccs3)c12
AC50 [1]: 12.6 µM [falling, single point]

CNCC/C=C1/c2ccccc2CSc2ccccc21
AC50 [1]: 0.116 µM [falling, full curve, poor fit]

COc1ccc(N2CCN(C(=O)c3cc4c(-c5ccc(Cl)cc5)nn(C)c4s3)CC2)cc1
AC50 [1]: 3.26 µM [rising, single point]

COc1ccc(/C(C)=N/Nc2ncc(Cl)cc2Cl)c(O)c1
AC50 [1]: 9.2 µM [rising, partial curve, poor fit] | AC50 [2]: 3.26 µM [falling, partial curve, poor fit]

COc1cc(CN(C)CC(=O)c2[nH]c(C)c(C(C)=O)c2C)ccc1OC(F)F
AC50 [1]: 29.1 µM [rising, single point]

CC(=O)c1sc(N/N=C\c2ccccc2O)nc1C
AC50 [1]: 10 µM [falling, single point]

CCCCn1nnc(NC(=O)COc2cc(C)ccc2C(C)C)n1
AC50 [1]: 1.46 µM [falling, partial curve, poor fit]
